Laboratory results from PubChem BioAssay AID1487 (National Center for Advancing Translational Sciences (NCATS), 2009).
Some of the results follow. The main result of the screen is listed elsewhere. These columns were measured beside it and carry no call. Most of these compounds were active or inconclusive in the main read-out, so they are no random draw. The note in brackets gives the kind of curve behind each potency; many fits are weak.

Assay: qHTS Assay for Modulators of Lamin A Splicing
Settings: HeLa LMNA splicing GFP/RFP minigene ratio, 48 h
How it was run: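 Read-out is the ratio of GFP to DsRed2 object intensity, acquired by 488 nm laser-scanning cytometry on HeLa lamin A-EGFP minigene reporter cells. Compound incubation 48 hrs at 37 °C in Opti-MEM with 2% FBS; DMSO 0.5% final.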

[1] = measured here: GFP splicing reporter channel
[2] = measured here: RFP viability control channel

| Compound | AC50 [1] | AC50 [2] |
| --- | --- | --- |
| C/C(=N\NC(N)=S)C1C2C3CC4C5CC(C42)C1C53 (stereo not given) | 0.794 µM [rising, full curve, poor fit] |  |
| Cc1noc(C)c1-c1nc(CSc2ccc(Cl)cc2)no1 | 0.112 µM [falling, full curve] | 0.0398 µM [falling, full curve] |
| CCc1ccc(NC(=O)c2ccc(F)c(S(=O)(=O)NCCc3ccc(OC)c(OC)c3)c2)cc1 | 11.2 µM [falling, single point] | 15.8 µM [falling, single point] |
| Cc1cc(C)c2nc(SCC(=O)N(C)C3CCS(=O)(=O)C3)cc(C)c2c1 (stereo not given) | 0.0112 µM [falling, full curve, poor fit] | 0.00447 µM [falling, full curve, poor fit] |
| FC(F)(F)c1nnc2c(Sc3ccccc3)nc3ccc(Cl)cc3n12 | 5.01 µM [falling, full curve, poor fit] | 2 µM [falling, full curve, poor fit] |
| Oc1cccc2ccc[n+](CC(O)Cn3c4ccccc4c4ccccc43)c12 (stereo not given) |  | 8.91 µM [rising, partial curve] |
| COc1ccc(-c2[nH]c(-c3ccc4c(c3)OCO4)nc2-c2ccccc2)cc1 | 10 µM [falling, partial curve] | 11.2 µM [falling, single point] |
| O=c1[nH]c(/C=C/c2cccc3ccccc23)nc2ccccc12 |  | 0.282 µM [falling, partial curve, poor fit] |
| CC(=O)c1ccc2c(c1)N(CCCN1CCC(CCO)CC1)c1ccccc1S2 | 0.000891 µM [falling, full curve, poor fit] |  |
| Cc1ccc(OCC(=O)N/N=C\c2ccc(O)cc2)c([N+](=O)[O-])c1 |  | 5.01 µM [falling, partial curve, poor fit] |
| CCCCCCN1C=CC(=C/C=C(\C#N)C(=O)OCC)C=C1 | 35.5 µM [falling, single point] | 12.6 µM [falling, partial curve] |
| C=CCc1c(C)nc(SC)nc1Nc1ccccc1 |  | 35.5 µM [rising, single point] |
| CC(C)CCNc1ncnc2c1cnn2-c1cccc(Cl)c1 |  | 31.6 µM [rising, single point] |
| O=C(c1cc2cc(Br)ccc2o1)N1CCCCC1 |  | 6.31 µM [rising, single point] |
| C=C(C)Cn1c(-c2ccccc2)nc2ccccc21 |  | 15.8 µM [rising, single point] |
| COc1cc(-c2nnc(SCC(=O)N3c4ccccc4Sc4ccccc43)o2)cc(OC)c1OC |  | 2.24 µM [rising, full curve, poor fit] |
| COCCNC(=O)C(=O)NCC(c1cccnc1)N1CCN(c2ccccc2)CC1 (stereo not given) | 0.02 µM [falling, full curve, poor fit] |  |
| Cc1ccc(/C=N/N2CCOCC2)s1 |  | 35.5 µM [rising, single point] |
| Cc1nn(-c2ccccc2)c2c1/C(=N/O)CC(C)(C)C2 |  | 15.8 µM [rising, single point] |

| Compound | AC50 [1] | AC50 [2] |
| --- | --- | --- |
| CC(=O)c1cccc(NC(=O)N2CCC(CN3CCCCC3)CC2)c1 | 0.0316 µM [falling, full curve] | 0.0316 µM [falling, full curve] |
| CCCNC(=O)c1c(N)n(-c2ccc(S(N)(=O)=O)cc2)c2nc3ccccc3nc12 |  | 0.501 µM [rising, full curve, poor fit] |
| COc1ccc2c(C#N)c3ccccn3c2c1 |  | 0.00447 µM [falling, full curve, poor fit] |
| CO[C@@]1(NC(=O)Cc2cccs2)C(=O)N2C(C(=O)O)=C(COC(N)=O)CS[C@@H]21 | 7.94 µM [rising, partial curve, poor fit] |  |
| O=c1oc2c(CN3CCOCC3)c(O)c(Cl)cc2c2c1CCCC2 | 2.24 µM [rising, partial curve, poor fit] | 35.5 µM [rising, single point] |
| COc1cccc(NC(=O)c2cc(-c3cccnc3)nc3c(Cl)cccc23)c1 | 22.4 µM [falling, single point] | 25.1 µM [falling, single point] |
| C=CCNC(=O)C1CCN(S(=O)(=O)c2ccc(Br)cc2)CC1 | 6.31 µM [rising, full curve, poor fit] |  |
| CC1(C)CC(=O)c2c(O)c(-c3ccccc3)c(=O)n(-c3ccccc3)c2C1 | 35.5 µM [rising, single point] | 35.5 µM [rising, single point] |
| O=C1C(Cl)=C(N2CCN(c3ccccc3[N+](=O)[O-])CC2)C(=O)c2ccccc21 | 35.5 µM [falling, single point] |  |
| Cc1cnc(NC(=O)CSc2c(Cl)cccc2Cl)s1 |  | 22.4 µM [rising, single point] |
| N#Cc1cccc(-c2nccc(NCc3cccnc3)n2)c1 | 7.94 µM [falling, partial curve] |  |
| Cc1ccc(/C=C/C2=Cc3c(sc(NC(=O)CSc4n[nH]c(N)n4)c3C#N)C(C)(C)C2)o1 | 35.5 µM [falling, single point] | 11.2 µM [falling, partial curve] |
| CCNC(=O)CON=C1c2ccccc2-c2ccccc21 | 15.8 µM [rising, partial curve] | 0.282 µM [rising, partial curve, poor fit] |
| CC(C)(C)NS(=O)(=O)c1ccc(CCC(=O)N2CCCC2)cc1 |  | 0.251 µM [falling, full curve] |
| CCCC(=O)Nc1sc2c(c1C(=O)OCC)CC(C)(C)OC2 | 11.2 µM [falling, partial curve] | 35.5 µM [falling, single point] |
| CCc1ccc(S(=O)(=O)NCCc2csc(-c3ccccc3)n2)s1 |  | 4.47 µM [rising, partial curve] |
| CC1CCCCN1C(=O)CN1CCC(c2nc3ccc(Cl)cc3[nH]2)CC1 (stereo not given) | 1.58 µM [falling, partial curve] |  |
| OC1CCN(c2c3c(nc4cc(-c5ccc(F)cc5)nn24)CCC3)CC1 | 10 µM [rising, partial curve] |  |
| CC1=C(C)CC(C(=O)NNC(=O)c2ccccc2O)C(C(=O)O)C1 (stereo not given) |  | 25.1 µM [rising, single point] |

| Compound | AC50 [1] | AC50 [2] |
| --- | --- | --- |
| COc1cc(NC(=O)c2ccccc2-c2ccccc2)cc(OC)c1OC | 35.5 µM [falling, single point] |  |
| O=C(N/N=C/C(Br)=C/c1ccccc1)c1cc(-c2ccco2)[nH]n1 | 11.2 µM [falling, single point] |  |
| CCN(CC)CCNC(=O)c1cc2cc(Br)ccc2s1 | 0.0355 µM [rising, full curve] | 0.0355 µM [rising, full curve, poor fit] |
| COc1cccc(-n2c(C)nc3c(cnn3-c3ccc(C)cc3)c2=O)c1 |  | 20 µM [rising, single point] |
| CCOC(=O)c1[nH]c2ccccc2c1NC(=O)c1ccc(Br)o1 | 12.6 µM [rising, single point] | 12.6 µM [rising, single point] |
| Cn1c(Oc2ccc(F)cc2F)c(C=O)c2ccccc21 | 0.0316 µM [falling, full curve, poor fit] |  |
| CC(C)(C)OC(=O)N1CCC(c2c(C(=O)Nc3ccc4c(c3)OCO4)cnn2-c2ccc(F)cc2F)CC1 | 10 µM [falling, partial curve] |  |
| Cc1ccc(NC(=O)CCc2nc3ccccc3s2)c(O)c1 |  | 3.16 µM [falling, full curve, poor fit] |
| CSCC[C@H](NC(=O)OC(C)(C)C)c1nnc(SCC=C(C)C)o1 | 0.0178 µM [rising, full curve, poor fit] | 35.5 µM [rising, single point] |
| O=C(c1cccc(C(=O)N2CCN(c3ccc(F)cc3)CC2)c1)N1CCN(c2ccc(F)cc2)CC1 | 7.08 µM [rising, partial curve] | 7.94 µM [rising, partial curve] |
| CC(=O)CCS(=O)(=O)c1ccc(Oc2ccc(S(=O)(=O)CCC(C)=O)cc2)cc1 | 35.5 µM [falling, single point] | 35.5 µM [falling, single point] |
| Cc1cc(Cl)ccc1OC(C)C(=O)Nc1ccc([N+](=O)[O-])cn1 (stereo not given) |  | 14.1 µM [rising, partial curve] |
| CCc1ccc(NC(=O)CSC2=Nc3ccccc3C3=NC(CC(=O)NCc4ccc5c(c4)OCO5)C(=O)N23)cc1 (stereo not given) | 0.00355 µM [falling, full curve, poor fit] |  |
| COc1ccc(C/C(C)=N/NC(=S)Nc2ccc(C(C)C)cc2)cc1 |  | 15.8 µM [rising, single point] |
| Brc1ccc2[nH]c3c(N4CCc5ccccc5C4)ncnc3c2c1 |  | 3.98 µM [rising, full curve, poor fit] |
| Cc1nc(/N=C(\N)NC(=O)N2c3ccccc3Sc3ccccc32)nc2ccccc12 |  | 25.1 µM [rising, single point] |
| CN(C)c1ccc(NC(=O)Cn2c(SCc3ccc(F)cc3)nc3cccnc32)cc1 | 0.0631 µM [falling, full curve, poor fit] | 0.02 µM [falling, full curve, poor fit] |
| CC1CCCN(C(=O)C(C)Sc2nc(-c3ccccc3)cc(C(F)(F)F)n2)C1 (stereo not given) |  | 11.2 µM [rising, single point] |
